# Assay results taken from patent publication US20080044424A1.
# By UniProt entry, the sequences of proteins in these tests, tags left out. Residues count along the entry.
# UniProt P25116, residues 42-102: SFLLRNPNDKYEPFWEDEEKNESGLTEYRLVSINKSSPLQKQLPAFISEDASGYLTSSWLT
# These are yes or no findings as the source states them, for the method shown. Some entries that bind do so weakly or less than the wild type.
# Target: thrombin-cleaved PAR1/thioredoxin: portion of PAR1 adjacent to the thioredoxin fusion protein (human) (UniProt P25116)
# Experiment: immunoprecipitation with antibody on Protein G, SDS-PAGE
binder,measurement,value
"mouse anti-hPAR1 antibody clone 4E7.J14.L16 (antibody, mouse IgG1, V domains shown) VH: EVQLQQSGPVLVKPGASVKMSCEASGYTFTDYYMNWVKQSHGKSLEWIGVIDPHNGRSRYNQMFKGKATMTVDKSSSTAYMELNNLTSKDSAVYYCASDDGPSHWYFDVWGTGTTVTVSS VL: DVLMTQTPLSLPVSLGDQASISCRSSQNIVHSNGNTYLEWYLQTPGQSPKLLIYKVSNRFSGVPDRFSGSGSGTDFTLKISRVEAEDLGIYYCFQGSHVPFTFGSGTKLEIK",binding,binds
